# Laboratory results published in PubChem BioAssay AID504834 (National Center for Advancing Translational Sciences (NCATS), 2011).
# About 22,000 (6.9%) of roughly 320,000 compounds were called active. The shares of active, inactive and inconclusive entries below differ from those in the screen. The call rests on the fitted dose curve; in most records, active means well fitted inhibition curve with a large enough effect; inconclusive means small, poorly fitted or top-dose-only effect, or another doubt; inactive means no such curve, though single readings can be large or run the other way. Potencies beside an inconclusive call are fits to weak or partial responses and may not hold up.
# Assay: Primary qHTS for delayed death inhibitors of the malarial parasite plastid, 96 hour incubation
# Conditions: P. falciparum luciferase reporter growth; series mostly up to 28.7 µM; activity change, negative = inhibition: at the top concentration
# Procedure, shortened: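 Two-generation exposure (96 h) targets delayed-death phenotype. Reporter parasites carrying integrated firefly luciferase, in red cells at 2% hematocrit and 0.05% parasitemia final, kept at 37 C, 5% CO2; luminescence loss indicates inhibition.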
# On the % scale 0 is the no-effect control and ±100 the full control effect; potency means the concentration at half of the fitted maximal effect.
SMILES,"activity change, negative = inhibition",Potency
CCN(CC)C(=O)C(=O)c1cn(CC(=O)NCc2ccc3c(c2)OCO3)c2ccccc12,inactive: 30.1%,
Oc1c(Br)cc(/C=N/Nc2nncc3ccccc23)cc1Br,inactive: -9.3%,
C/C(=C/C(=O)N1CCN(C)CC1)C(=O)O,,"inconclusive: 14.7 µM [inhibitor, partial curve, poor fit]"
CC(C)NC(=O)c1c(CSc2ccc(Cl)cc2)noc1C(=O)NCc1ccccc1,,"inconclusive: 2.33 µM [inhibitor, single point]"
O=C(Nc1nc(-c2ccc(S(=O)(=O)N3CCCCCC3)cc2)cs1)c1ccccc1,inactive: 1.29%,
Cc1ccc(SCC(=O)Nc2ccc(N3CCN(C)CC3)c(F)c2)c(C)c1,,"inconclusive: 9.28 µM [inhibitor, partial curve, poor fit]"
Cc1nc2ccccc2n1CCc1nc2c3ccccc3nc(=S)n2[nH]1,,"inconclusive: 13.1 µM [inhibitor, partial curve, poor fit]"
O=C(NC(=S)Nc1cccc(Cl)c1N1CCCCC1)c1ccco1,,"inconclusive: 6.57 µM [inhibitor, single point]"
COc1ccccc1OCc1nnc(SCC(=O)Nc2nnc(C3CC3)s2)n1C,inactive: 16.9%,
O=C(Nc1ccc(-c2ccccc2)cc1)c1ccccc1,,"inconclusive: 2.62 µM [inhibitor, partial curve, poor fit]"
Cc1ccc(-c2csc(N(C)C(=O)c3c(C)nn(-c4ccccc4)c3Cl)n2)cc1,,"inconclusive: 18.5 µM [inhibitor, single point]"
c1ccc(Nc2nc3ccccc3n3cnnc23)cc1,inactive: 14%,
CCCCCCSc1nsc(NC(=O)CCC)n1,,"inconclusive: 0.0928 µM [inhibitor, full curve, poor fit]"
CC(O)CNc1ncnc2nc[nH]c12 (stereo not given),inactive: -35.7%,
COC(=O)c1cc(NC2c3ccccc3C(=O)N2c2ccc(Cl)cn2)cc(C(=O)OC)c1 (stereo not given),,"inconclusive: 0.928 µM [inhibitor, full curve, poor fit]"
COc1cc(/C=N/Nc2nc(C)cc(C)n2)cc(OC)c1OC,,"inconclusive: 10.4 µM [inhibitor, single point]"
O=C(NCCCN1CCOCC1)c1ccc(Cl)c(S(=O)(=O)N2CCCCCC2)c1,,"inconclusive: 18.5 µM [inhibitor, single point]"
CC1CCCC(NC(=O)C2CCN(S(=O)(=O)N3CCCCC3)CC2)C1C (stereo not given),,"inconclusive: 10.4 µM [inhibitor, single point]"
CC(C)c1ccccc1N=C1SCCCN1C(=O)c1cccc(N2C(=O)CCC2=O)c1,,"inconclusive: 11.7 µM [inhibitor, single point]"
CC1C(=O)N2CCCc3cc(S(=O)(=O)N(C)CCC#N)cc1c32 (stereo not given),inactive: 33.5%,
CCCc1c(C(=O)N2CCN(c3ccccc3OC)CC2)cnn1-c1ccccc1,inactive: -15.4%,
COc1ccc(NC(=O)c2cc(S(=O)(=O)N3CCCCC3)c[nH]2)cc1,inactive: 4.73%,
COc1ccc(CC2(CCc3ccncc3)C(=O)NC(=O)NC2=O)c(OC)c1,,"inconclusive: 14.7 µM [inhibitor, partial curve, poor fit]"
OC(c1ccccc1)C(CN1CCOCC1)c1ccccc1 (stereo not given),inactive: -25.2%,

# A draw from above in order of molar mass, descending:
SMILES,"activity change, negative = inhibition",Potency
CC(C)NC(=O)c1c(CSc2ccc(Cl)cc2)noc1C(=O)NCc1ccccc1,,"inconclusive: 2.33 µM [inhibitor, single point]"
COc1cc(/C=N/Nc2nc(C)cc(C)n2)cc(OC)c1OC,,"inconclusive: 10.4 µM [inhibitor, single point]"
OC(c1ccccc1)C(CN1CCOCC1)c1ccccc1 (stereo not given),inactive: -25.2%,
c1ccc(Nc2nc3ccccc3n3cnnc23)cc1,inactive: 14%,

# Remaining list, next part.

SMILES,"activity change, negative = inhibition",Potency
CCOC(=O)Cc1c(C)nc2c(-c3ccccc3)c(-c3ccccc3)[nH]n2c1=O,,"inconclusive: 0.0465 µM [inhibitor, full curve, poor fit]"
COC(=O)c1ccc(CSc2ncn[nH]2)o1,,"inconclusive: 8.28 µM [inhibitor, partial curve, poor fit]"
COc1ccc(C2Cc3ccccc3C(=O)O2)cc1 (stereo not given),inactive: -13.2%,
Cc1cccc(-n2nnnc2-c2cnccc2C(F)(F)F)c1C,,"inconclusive: 1.04 µM [inhibitor, full curve, poor fit]"
COc1ccc(S(=O)(=O)NCc2cccnc2)c2ccccc12,inactive: -11.2%,
COC(=O)C1=C(c2ccc(F)cc2OCc2ccccc2)C[C@@H]2CC[C@H]1N2C(=O)NCc1ccc2[nH]ccc2c1,,active: 5.86 µM
Cc1c(Cl)cccc1-n1c(SCC(=O)NCc2cccs2)nnc1-c1ccncc1,,"inconclusive: 13.1 µM [inhibitor, partial curve, poor fit]"
O=C1C2C3CCC(C3)C2C(=O)N1c1ccc2ccccc2c1 (stereo not given),,"inconclusive: 18.5 µM [inhibitor, single point]"
Cc1ccc(Cl)cc1N1CCN(C(=O)CCCn2c(=O)c3cccn3c3cccnc32)CC1,,"inconclusive: 18.5 µM [inhibitor, single point]"
Cc1ccc(/C=N/NC(=O)CNC(=O)c2cccs2)o1,inactive: 23.2%,
O=S(=O)(Nc1ncccn1)c1ccc(NC(=S)Nc2ccc(Cl)cc2)cc1,inactive: 5%,
CCOc1ccc(S(=O)(=O)N(CC(=O)NCc2ccncc2)c2ccc(C)cc2)cc1,,"inconclusive: 9.28 µM [inhibitor, partial curve, poor fit]"
CCC/C=C(\CCC)C(NC(=O)Cc1ccccc1)c1ccc(C(=O)OC)cc1 (stereo not given),,"inconclusive: 18.5 µM [inhibitor, single point]"
O=C(NC1CCCCC1)C(c1cccnc1)N(C(=O)CCl)c1ccccc1Cl (stereo not given),inactive: 38.5%,
Cc1nc2cc(-c3cccc(F)c3)nn2c(C)c1CCC(=O)NC(C)c1ccc2c(c1)OCCO2 (stereo not given),,"inconclusive: 18.5 µM [inhibitor, single point]"
O=C(Nc1cccc(NC(=O)C2C3CC4OC(=O)C2C4C3)c1)c1ccccc1 (stereo not given),inactive: 0.663%,
CC(C)Cn1c(CCNC(=O)c2ccco2)nc2ccccc21,,"inconclusive: 10.4 µM [inhibitor, single point]"
S=C(NCCNC(=S)Nc1ccccc1)Nc1ccccc1,,"inconclusive: 18.5 µM [inhibitor, single point]"
CCn1c(C(O)c2cc(OC)ccc2OC)nc2ccccc21 (stereo not given),,active: 9.28 µM
CC1CCN(C(=O)c2cc(S(=O)(=O)N3CCOCC3)ccc2N2CCCC2)CC1,inactive: 5.7%,
COc1ccc(C(=O)NCC(=O)OCC(=O)Nc2cccc(S(=O)(=O)N3CCCC3)c2)cc1,inactive: 107%,
CCC(C)C(=O)Nc1nnc(SCC(=O)NC(C)(C)C)s1 (stereo not given),,"inconclusive: 8.28 µM [inhibitor, partial curve, poor fit]"
CCN(c1ccccc1)c1nc2ccsc2c(=O)s1,inactive: 6.17%,
CC1(C)CC(N2CCN(C(c3ccccc3)c3ccccc3)CC2)=CC(=[N+]2CCCCC2)C1,,active: 0.415 µM

SMILES,"activity change, negative = inhibition",Potency
CCC1CN(S(=O)(=O)c2ccc3c(c2)NC(=O)CC(=O)N3)c2cc(Cl)ccc2O1 (stereo not given),,"inconclusive: 16.5 µM [inhibitor, single point]"
COc1ccc(OC)c(C(=O)N2CCC(C(=O)c3ccc(F)cc3)CC2)c1,,active: 9.28 µM
CCOC(=O)c1cnc2c(C)c(C)ccc2c1NCCN1CCOCC1,,"inconclusive: 18.5 µM [inhibitor, single point]"
O=C(Cn1cnc2ccccc2c1=O)N1CCN(Cc2ccccc2)CC1,inactive: -3.29%,
Oc1cc(Cl)c(Cl)cc1Cl,,"inconclusive: 4.26 µM [inhibitor, partial curve, poor fit]"
COc1cc(-c2nnc(SCC#CCO)o2)cc(OC)c1OC,,"inconclusive: 0.928 µM [inhibitor, full curve, poor fit]"
COc1ccccc1-c1cc(C(=O)NCCN2CCOCC2)no1,,"inconclusive: 8.28 µM [inhibitor, partial curve, poor fit]"
O=C(NCC1CCCO1)c1ccccc1-c1nc(-c2ccccc2)no1 (stereo not given),inactive: 12.8% [at 5.75 µM],
COCCn1c(N)c(C(=O)NS(=O)(=O)c2ccc(C)cc2)c(=O)[nH]c1=O,,"inconclusive: 4.15 µM [inhibitor, single point]"
Cc1cccc(N2C(=O)N3[C@H](c4ccc(Br)cc4)[C@@H]4C(=O)N(C(C)(C)C)C(=O)[C@@H]4[C@]3(Cc3ccc(Cl)cc3)C2=O)c1,,"inconclusive: 0.657 µM [inhibitor, full curve, poor fit]"
COc1ccccc1N1CCN(C(=O)c2cc(-c3ccc(F)cc3)[nH]c2C)CC1,inactive: -3.65%,
Cc1ccc(Cn2c(=O)c3ccccc3n3c(CCC(=O)NCCN4CCOCC4)nnc23)cc1,,"inconclusive: 8.28 µM [inhibitor, partial curve]"
Cc1cc(=O)n2[nH]c(=O)c(N=Nc3ccccc3)c2[nH]1,,"inconclusive: 11.7 µM [inhibitor, partial curve, poor fit]"
O=c1c2[nH]c3ccc(F)cc3c2ncn1CCCN1CCOCC1,,"inconclusive: 3.29 µM [inhibitor, single point]"
COCCn1nnnc1C(c1cccs1)N1CCN(c2ccccc2)CC1 (stereo not given),,"inconclusive: 10.4 µM [inhibitor, single point]"
CC(=O)c1ccc(COC(=O)c2ccccc2NC(=O)C(C)C)cc1,inactive: 13.8%,
CCCCNCCOCCOc1ccc(F)cc1,inactive: 18.7%,
FCCCOc1ccc(/C=N/OCc2ccc(Cl)cc2Cl)cc1,,"inconclusive: 11.7 µM [inhibitor, single point]"
Cc1cc2ncn(C(=O)N3CCCC3)c2cc1C,,"inconclusive: 1.85 µM [inhibitor, full curve, poor fit]"
CN(C)S(=O)(=O)c1cccc(NC(=S)N/N=C/c2cc(Br)ccc2O)c1,,"inconclusive: 0.37 µM [inhibitor, full curve]"
COc1ccc(N(CC(=O)Nc2ccc3c(c2)OCO3)S(=O)(=O)c2ccc(C)cc2)cc1OC,,"inconclusive: 18.5 µM [inhibitor, single point]"
CC(C)[C@H](N[C@@H](C)c1ccccc1)c1c(O)ccc2ccccc12,,"inconclusive: 1.65 µM [inhibitor, partial curve, poor fit]"
